# Source: PubChem BioAssay AID2685 (National Center for Advancing Translational Sciences (NCATS), 2010)
# The list shows a part of the results. The main result of the screen is listed elsewhere. These columns were measured beside it and carry no call. The list favours compounds with an active or inconclusive main result. Words in brackets tell the shape of the fitted curve; partial curves, single points and poor fits give uncertain potencies.
# Assay: qHTS Assay for Lipid Storage Modulators in Drosophila S3 Cells;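 for cell number change: cells counted by Cell Tracker Red CMTPX staining in the red channel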
# Conditions: BODIPY lipid droplet fluorescence, 18-24 h; for cell number change: measured here: cell count max response, cells fed with added oleic acid
# Method in brief: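 Drosophila S3 cells loaded with oleic acid (400 uM, as added) and compounds at several concentrations; lipid droplets imaged by 488-nm laser-scanning cytometry, 500–530 nm intensity and object ratio to cell channel. Percent activity normalized to 20 uM Triacsin C.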
# [1] = measured here: lipid fluorescence (Fed channel) AC50, cells fed with added oleic acid
# [2] = measured here: cell number channel AC50, cells fed with added oleic acid
SMILES,cell number change,AC50 [1],AC50 [2]
COc1ccc(/C=C2\S/C(=N/S(=O)(=O)c3cccs3)NC2=O)cc1,15%,,
COc1ccc(CCNC(=O)CSc2ccc3nnc(CCNC(=O)c4ccccc4)n3n2)cc1OC,23.2%,"29.1 µM [rising, single point]",
CC(=O)Nc1nc(-c2ccc(Br)s2)cs1,34.3%,,"5.17 µM [rising, full curve, poor fit]"
CC(C)c1csc(CN2CCC(CCC(=O)NCC3CCCO3)CC2)n1 (stereo not given),24.3%,,
CCn1nc(C(=O)NNC(=O)COc2ccc(OC)cc2)c2ccccc2c1=O,19%,,
CC(C)OCCCN1CN(S(=O)(=O)c2ccccc2)c2nc3ccccc3nc21,36.8%,"0.651 µM [rising, full curve]","9.2 µM [rising, partial curve]"
N=c1n(Cc2ccccc2)c2ccccc2n1CC(O)COc1ccccc1 (stereo not given),-39.4%,"32.6 µM [falling, single point]","14.6 µM [falling, partial curve]"
O=C(Nc1cccc(Cl)c1)N(Cc1nc2ccccc2c(=O)[nH]1)Cc1cccs1,7.39%,"6.51 µM [rising, partial curve, poor fit]",
COc1cccc(NC(=O)CSc2nnc(-c3cc(C)[nH]n3)n2N)c1,7.78%,,
Nc1ccc(-c2nc3ccc([N+](=O)[O-])cc3[nH]2)cc1,-17.5%,"29.1 µM [rising, single point]",
Nc1c(C(=O)NCC2CCCO2)sc(=S)n1-c1ccccc1 (stereo not given),19.2%,"0.058 µM [falling, full curve, poor fit]",
COc1ccc(NC(=O)CN2C(=O)NC3(CCCC3)C2=O)cc1OC,15.9%,"29.1 µM [falling, single point]",
O=C1NC[C@@H](Cc2ccc(O)cc2)N(CCc2cccc3ccccc23)C1=O,0.485%,,
O=C(COc1ccccc1Br)N1CCN(c2ccccc2)CC1,155%,"1.64 µM [rising, partial curve]","4.61 µM [rising, partial curve]"
CCCn1c(SCC(=O)N2CCCCC2)nc2c1c(=O)n(C)c(=O)n2C,6.58%,"0.112 µM [rising, full curve, poor fit]",
CC1CN(C(=O)c2cc3ccccc3cc2O)CC(C)O1 (stereo not given),-50%,"20.6 µM [rising, single point]","0.00517 µM [falling, full curve, poor fit]"
C=CCn1cc(/C=C2\SC(N3CCOCC3)=NC2=O)c2ccccc21,-0.743%,,
O=C(Nc1ccccc1Cl)c1cc(S(=O)(=O)N2CCOCC2)cs1,-20%,"6.51 µM [rising, single point]",
CCCn1c(SCC(=O)N2c3ccccc3Sc3ccccc32)nc2ccccc21,26.8%,"25.9 µM [rising, single point]","0.517 µM [falling, single point]"
Cc1c(C(=O)O)sc2nc3n(c(=O)c12)CCCCC3,2.04%,"6.51 µM [falling, single point]",

# Fetched by structure from the list above, 2 records:
SMILES,cell number change,AC50 [1],AC50 [2]
O=C(Nc1ccccc1Cl)c1cc(S(=O)(=O)N2CCOCC2)cs1,-20%,"6.51 µM [rising, single point]",
O=C(Nc1cccc(Cl)c1)N(Cc1nc2ccccc2c(=O)[nH]1)Cc1cccs1,7.39%,"6.51 µM [rising, partial curve, poor fit]",

# The results go on.

SMILES,cell number change,AC50 [1],AC50 [2]
COc1ccc(NC(=O)CSc2nc(C3CC3)nc3ccccc23)c(OC)c1,5%,,
COc1ccc(CC(=O)N/N=C\c2cc(Br)c(O)c(Br)c2)cc1,12.2%,,
COC(=O)CCCCC(=O)C1C(=O)CC(C)(C)C(C(=O)OC)C1=O (stereo not given),-199%,"29.1 µM [falling, partial curve]","29.1 µM [falling, single point]"
Cn1cc(Cl)c(C(=O)OCC(=O)Nc2cccc(Cl)c2)n1,-2.02%,"0.13 µM [falling, full curve, poor fit]",
N#Cc1ccc(COn2nnc3ccccc32)cc1,,,"0.092 µM [falling, single point]"
CC(=O)N1CCC(N(CCN2CCOCC2)C(=S)Nc2cc(C)ccc2C)CC1,-11.8%,"3.26 µM [falling, full curve, poor fit]",
CNc1ncnc(Sc2ccc(Cl)cc2)c1[N+](=O)[O-],-12.5%,"0.206 µM [falling, full curve]","0.231 µM [falling, full curve]"
Cc1ccccc1NC(=O)c1ccccc1NS(=O)(=O)c1cccc2cccnc12,4.21%,,
COc1ccc(C(=O)/C=C/Nc2ccc(S(=O)(=O)Nc3nc(C)cc(C)n3)cc2)cc1OC,8.97%,"3.26 µM [rising, partial curve]",
COc1ccc(NC(=O)Cn2c(=O)n(-c3ccccc3)c(=O)c3oc4ccccc4c32)c(OC)c1,8.54%,"29.1 µM [rising, single point]",
Cc1nc(-c2ccc(C(=O)Nc3cc(S(N)(=O)=O)ccc3C)cc2)cs1,-33.6%,,"2.31 µM [falling, partial curve, poor fit]"
COc1ccc(/C=C/C(=O)C23CC4CC(CC(C4)C2)C3)cc1CN1CCOCC1,12.2%,"25.9 µM [rising, single point]",
CC(=O)c1ccc(C(=O)N2CCC(CO)(Cc3cccc(C(F)(F)F)c3)CC2)cc1,-12.2%,,
COc1ccc(COC(=O)c2ccc(Cl)c(S(=O)(=O)N3CCOCC3)c2)cc1F,-13.3%,,
Cc1ccccc1C(=O)Oc1cccc2c(O)cccc12,-30.8%,"20.6 µM [falling, single point]","23.1 µM [falling, single point]"
CCOC(=O)c1c(C)c(C(=O)NCCCN2CCCC2=O)c(C)n1CC,34.5%,"7.31 µM [rising, partial curve, poor fit]","23.1 µM [rising, single point]"
Cn1c(Cc2ccccc2)nnc1SCC(=O)N1CCOCC1,-1.01%,"29.1 µM [falling, single point]",
Cc1ccc(CNC(=O)COc2ccc3c(c2)CCC3)cc1,25.7%,"20.6 µM [rising, single point]",
C/C(=N/OCO/N=C(\C)c1ccccc1)c1ccccc1,13.2%,"0.00366 µM [rising, full curve, poor fit]",
O=C(N/C(=C/c1ccco1)C(=O)N1CCCCCC1)c1ccccc1,15.5%,"6.51 µM [rising, single point]",

SMILES,cell number change,AC50 [1],AC50 [2]
CC(=O)Nc1cc2c(cc1[N+](=O)[O-])OCCO2,1.08%,"3.66 µM [falling, single point]","3.66 µM [falling, single point]"
CCOC(=O)c1cnc2c(OC)cccc2c1N1CCN(c2ccccn2)CC1,-78.2%,,"18.4 µM [falling, single point]"
NCCNc1ccc(C(=O)N2c3ccccc3Sc3ccccc32)cc1[N+](=O)[O-],11.2%,,
COc1ccc(S(=O)(=O)N2CCC(C(=O)N[C@H](C(=O)N3CCCCCC3)C(C)C)CC2)cc1,-7.59%,"11.6 µM [falling, partial curve, poor fit]",
C[C@@H]1NC(=O)c2cc([N+](=O)[O-])cc(I)c2NCC[C@@H](C(N)=O)NC(=O)[C@H](CC(N)=O)NC1=O,-36.9%,"18.4 µM [falling, partial curve, poor fit]","29.1 µM [falling, single point]"
O=C(CC(=O)NCc1ccc(Cl)cc1)NCc1ccc(Cl)cc1,,,"0.291 µM [rising, partial curve, poor fit]"
COC(=O)Cn1nc(-c2ccc(C)c(S(=O)(=O)N(C)C)c2)c2ccccc2c1=O,-4.39%,"2.91 µM [rising, single point]",
O=[N+]([O-])c1ccc2n[nH]nc2c1,0.724%,,"0.731 µM [falling, full curve]"
Cc1ccc(NC(=O)CNCc2ccccc2)cc1Br,,,"2.31 µM [falling, partial curve]"
Cn1c(Cc2ccccc2)nnc1SCC(=O)Nc1ccccc1N1CCOCC1,,"0.82 µM [rising, single point]","1.84 µM [rising, partial curve]"
CC(=O)c1ccc(-c2ccc(C(=O)N3CCC(C(N)=O)CC3)o2)cc1,29.9%,"10.3 µM [rising, partial curve, poor fit]",
CC(C)NC(=O)CSc1nnc(-c2ccc(C(C)(C)C)cc2)n1C,,"20.6 µM [falling, single point]",
CCOc1ccc(CNn2nnnc2N)cc1,-1.56%,"3.66 µM [falling, single point]","6.51 µM [falling, single point]"
CCOc1ccc(CCNC(=O)COC(=O)c2ccc(F)c(S(=O)(=O)N3CCOCC3)c2)cc1OCC,-33%,"10.3 µM [falling, partial curve, poor fit]","1.16 µM [falling, full curve, poor fit]"
Cc1cccc(C)c1NC(=O)CCCSc1nnc(-c2ccco2)n1-c1ccccc1,0.593%,"0.0731 µM [rising, full curve, poor fit]","0.00461 µM [rising, full curve, poor fit]"
Cn1c(-c2c(N)n(CCc3ccccc3)c3nc4ccccc4nc23)nc2ccccc21,-2.61%,,
COc1ccc(Br)cc1C(=O)Nc1ccccc1N1CCN(C(=O)c2ccccc2)CC1,25.5%,,
CCN(C(=O)c1ccco1)c1nc(CC(=O)Nc2ccc(Cl)cc2)cs1,-14.1%,,"0.184 µM [rising, full curve]"
CC(C)N=Cc1c(O)[nH]c2ccccc12,41.3%,"4.11 µM [rising, partial curve]","2.59 µM [rising, full curve]"
